Values from PubChem BioAssay AID1259295 (Sanger Institute, 2017)

Screen: 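Identify siRNA and drug combinations whose joint killing beats the expected effect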 (secondary deconvolution screen, four single siRNAs per gene)
Cell system: human COLO678 colorectal cancer cells
Reagent: single siRNA against human genes
Conditions: anchor drug BYL719 at 1 µM, cetuximab at 5 µg/ml or trametinib at 10 nM, or DMSO vehicle alone
Read-out: 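Averaged cell survival relative to control pool 2 with DMSO, plus synergy scores weighing knockdown combined with each of three drugs against either separately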
Reading the numbers: synergy score with BYL719: higher = stronger combined killing with BYL719; synergy score with cetuximab: higher = stronger combined killing with cetuximab; synergy score with trametinib: higher = stronger combined killing with trametinib; viability, vehicle only: higher = more cells survive
Active means: 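a single siRNA is called active when its synergy score is above 0.10 for at least one of the three drugs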
The deposit covers 160 reagents; shown is a part drawn at random. 40 of them (25%) count as active. 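How the synergy score is calculated is not defined; single-siRNA calls need support from other siRNAs and cell lines.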 Entries without a mark were called inactive. The numbers tell different reagents against one gene apart. No viability above 1 is reported: the scale is capped. Not stated in the record: the amount of reagent, the time to read-out.

| Target gene | siRNA no. | synergy score with BYL719 | synergy score with cetuximab | synergy score with trametinib | viability, vehicle only (fraction of control) |
| --- | --- | --- | --- | --- | --- |
| PFKFB3 (GeneID 5209) | 1 | -0.138 | -0.0454 | -0.0763 | 0.584 |
| PFKFB3 (GeneID 5209) | 2 | -0.0326 | 0.0299 | 0.013 | 0.569 |
| PFKFB3 (GeneID 5209) | 3 | -0.152 | -0.0149 | -0.0598 | 0.619 |
| PFKFB3 (GeneID 5209) | 4 | -0.0843 | -0.00345 | 0.0401 | 0.887 |
| SYNCRIP (GeneID 10492) | 1 | -0.0413 (active) | 0.0359 | 0.163 | 0.865 |
| SYNCRIP (GeneID 10492) | 2 | 0.0233 | 0.0941 | 0.00594 | 1 |
| SYNCRIP (GeneID 10492) | 3 | 0.0671 | 0.042 | 0.0423 | 0.887 |
| SYNCRIP (GeneID 10492) | 4 | -0.0481 | 0.0662 | 0.0506 | 0.993 |
| IKBKB (GeneID 3551) | 1 | -0.0222 | 0.0595 | -0.0589 | 1 |
| IKBKB (GeneID 3551) | 2 | -0.0222 (active) | 0.00326 | 0.129 | 1 |
| IKBKB (GeneID 3551) | 3 | -0.0179 (active) | 0.0833 | 0.114 | 1 |
| IKBKB (GeneID 3551) | 4 | -0.0877 | -0.119 | 0.073 | 1 |
| STK36 (GeneID 27148) | 1 | -0.215 | -0.0934 | 0.0671 | 0.861 |
| STK36 (GeneID 27148) | 2 | -0.206 | -0.268 | 0.00746 | 0.768 |
| STK36 (GeneID 27148) | 3 | -0.134 | -0.0181 | -0.0517 | 0.718 |
| STK36 (GeneID 27148) | 4 | -0.14 | -0.0577 | 0.0455 | 0.943 |
| RPS6KA4 (GeneID 8986) | 1 | 0.0802 (active) | 0.0333 | 0.103 | 0.96 |
| RPS6KA4 (GeneID 8986) | 2 | 0.0318 | -0.0391 | 0.0571 | 0.896 |
| RPS6KA4 (GeneID 8986) | 3 | 0.0309 | -0.0259 | 0.0666 | 0.93 |
| RPS6KA4 (GeneID 8986) | 4 | -0.0871 | -0.00109 | -0.0352 | 1 |
| CSNK2A2 (GeneID 1459) | 1 | -0.205 | -0.0687 | 0.064 | 0.872 |
| CSNK2A2 (GeneID 1459) | 2 | -0.0905 (active) | -0.04 | 0.141 | 0.958 |
| CSNK2A2 (GeneID 1459) | 3 | -0.227 | -0.229 | -0.0627 | 0.764 |
| CSNK2A2 (GeneID 1459) | 4 | -0.0576 | 0.00582 | -0.0285 | 0.608 |
